# Source: the supplement of paper PMC10849652
# Chains of the proteins cited; added tags and fusions are not shown. Lines headed by an entry give the natural chain unless they say otherwise; changes in a name come on top.
# UniProt P80108: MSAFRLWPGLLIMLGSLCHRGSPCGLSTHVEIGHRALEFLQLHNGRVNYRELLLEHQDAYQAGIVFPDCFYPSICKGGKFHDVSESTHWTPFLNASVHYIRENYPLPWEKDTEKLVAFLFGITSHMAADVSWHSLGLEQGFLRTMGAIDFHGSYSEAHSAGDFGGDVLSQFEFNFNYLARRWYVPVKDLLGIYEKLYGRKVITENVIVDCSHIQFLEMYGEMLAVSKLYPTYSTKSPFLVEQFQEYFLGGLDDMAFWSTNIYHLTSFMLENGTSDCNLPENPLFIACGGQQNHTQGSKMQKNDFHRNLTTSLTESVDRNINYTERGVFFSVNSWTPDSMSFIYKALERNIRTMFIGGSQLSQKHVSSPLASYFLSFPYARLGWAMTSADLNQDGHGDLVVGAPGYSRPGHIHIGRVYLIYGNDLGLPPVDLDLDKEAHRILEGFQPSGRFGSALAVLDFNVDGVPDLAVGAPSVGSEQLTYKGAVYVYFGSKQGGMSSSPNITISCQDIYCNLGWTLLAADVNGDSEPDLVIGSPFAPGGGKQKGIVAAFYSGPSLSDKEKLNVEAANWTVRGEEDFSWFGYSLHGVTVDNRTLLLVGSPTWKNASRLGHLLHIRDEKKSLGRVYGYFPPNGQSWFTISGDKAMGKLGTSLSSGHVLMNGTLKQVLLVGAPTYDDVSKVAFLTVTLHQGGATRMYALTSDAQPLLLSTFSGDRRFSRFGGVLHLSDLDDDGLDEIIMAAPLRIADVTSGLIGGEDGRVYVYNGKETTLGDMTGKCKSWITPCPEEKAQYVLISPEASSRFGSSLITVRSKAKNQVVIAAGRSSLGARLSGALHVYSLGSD
# UniProt Q9BVM4: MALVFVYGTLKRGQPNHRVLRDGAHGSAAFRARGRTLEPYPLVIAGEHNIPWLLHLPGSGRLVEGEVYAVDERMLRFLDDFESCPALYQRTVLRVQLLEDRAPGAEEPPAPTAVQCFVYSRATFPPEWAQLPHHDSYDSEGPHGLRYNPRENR
# UniProt Q13439: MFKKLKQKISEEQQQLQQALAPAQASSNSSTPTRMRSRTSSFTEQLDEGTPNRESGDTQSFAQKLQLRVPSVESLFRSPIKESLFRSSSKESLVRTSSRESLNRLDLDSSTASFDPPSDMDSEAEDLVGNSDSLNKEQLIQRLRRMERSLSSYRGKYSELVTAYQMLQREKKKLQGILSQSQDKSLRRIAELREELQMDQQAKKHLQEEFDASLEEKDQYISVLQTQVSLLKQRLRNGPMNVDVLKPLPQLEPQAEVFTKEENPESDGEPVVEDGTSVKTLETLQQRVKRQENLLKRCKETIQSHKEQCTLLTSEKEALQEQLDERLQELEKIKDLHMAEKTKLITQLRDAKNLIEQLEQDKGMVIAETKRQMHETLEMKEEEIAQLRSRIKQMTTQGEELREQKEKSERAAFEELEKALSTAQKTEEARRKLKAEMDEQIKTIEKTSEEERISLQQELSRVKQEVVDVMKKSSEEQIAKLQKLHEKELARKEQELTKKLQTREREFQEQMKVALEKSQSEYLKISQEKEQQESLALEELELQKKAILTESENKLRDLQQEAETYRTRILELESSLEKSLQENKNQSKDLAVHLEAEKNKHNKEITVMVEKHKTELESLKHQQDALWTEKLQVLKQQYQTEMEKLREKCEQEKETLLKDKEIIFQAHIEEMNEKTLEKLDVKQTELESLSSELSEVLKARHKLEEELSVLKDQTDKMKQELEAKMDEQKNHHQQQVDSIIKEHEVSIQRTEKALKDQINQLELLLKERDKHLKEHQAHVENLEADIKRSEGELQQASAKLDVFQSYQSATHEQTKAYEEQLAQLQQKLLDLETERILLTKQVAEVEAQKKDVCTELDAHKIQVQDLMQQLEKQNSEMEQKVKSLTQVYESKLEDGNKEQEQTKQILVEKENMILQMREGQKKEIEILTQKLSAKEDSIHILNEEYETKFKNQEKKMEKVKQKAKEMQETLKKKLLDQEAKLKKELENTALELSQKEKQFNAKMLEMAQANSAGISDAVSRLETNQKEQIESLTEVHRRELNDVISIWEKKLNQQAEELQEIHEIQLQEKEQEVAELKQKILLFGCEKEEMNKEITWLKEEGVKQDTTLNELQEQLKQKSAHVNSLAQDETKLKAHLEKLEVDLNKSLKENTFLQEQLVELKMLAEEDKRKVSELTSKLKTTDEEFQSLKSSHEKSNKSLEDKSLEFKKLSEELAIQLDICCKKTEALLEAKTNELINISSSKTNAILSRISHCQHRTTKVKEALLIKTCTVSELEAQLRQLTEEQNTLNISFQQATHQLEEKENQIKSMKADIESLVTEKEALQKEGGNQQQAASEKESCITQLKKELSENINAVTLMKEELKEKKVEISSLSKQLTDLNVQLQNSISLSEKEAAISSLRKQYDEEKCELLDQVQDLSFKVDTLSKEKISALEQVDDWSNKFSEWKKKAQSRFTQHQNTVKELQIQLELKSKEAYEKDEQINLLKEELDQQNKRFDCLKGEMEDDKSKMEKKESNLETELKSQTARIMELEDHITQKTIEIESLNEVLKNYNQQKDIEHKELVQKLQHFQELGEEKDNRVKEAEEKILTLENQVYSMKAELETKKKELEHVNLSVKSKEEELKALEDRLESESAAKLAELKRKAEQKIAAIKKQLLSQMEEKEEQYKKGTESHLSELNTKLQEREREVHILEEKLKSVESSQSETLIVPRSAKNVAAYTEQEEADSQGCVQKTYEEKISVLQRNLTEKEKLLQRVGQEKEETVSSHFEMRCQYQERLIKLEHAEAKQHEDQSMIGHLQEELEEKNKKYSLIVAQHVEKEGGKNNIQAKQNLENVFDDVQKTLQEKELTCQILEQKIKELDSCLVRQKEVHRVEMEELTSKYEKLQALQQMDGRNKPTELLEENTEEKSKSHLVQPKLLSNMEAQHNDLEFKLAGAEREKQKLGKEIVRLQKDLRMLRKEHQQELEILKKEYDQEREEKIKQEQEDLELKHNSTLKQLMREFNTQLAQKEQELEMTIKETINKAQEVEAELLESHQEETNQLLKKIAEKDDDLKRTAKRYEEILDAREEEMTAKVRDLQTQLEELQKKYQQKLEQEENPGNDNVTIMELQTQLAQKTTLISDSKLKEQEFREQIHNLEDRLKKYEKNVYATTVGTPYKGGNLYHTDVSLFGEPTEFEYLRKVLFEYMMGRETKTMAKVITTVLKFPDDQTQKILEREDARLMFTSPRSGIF
# UniProt Q14956: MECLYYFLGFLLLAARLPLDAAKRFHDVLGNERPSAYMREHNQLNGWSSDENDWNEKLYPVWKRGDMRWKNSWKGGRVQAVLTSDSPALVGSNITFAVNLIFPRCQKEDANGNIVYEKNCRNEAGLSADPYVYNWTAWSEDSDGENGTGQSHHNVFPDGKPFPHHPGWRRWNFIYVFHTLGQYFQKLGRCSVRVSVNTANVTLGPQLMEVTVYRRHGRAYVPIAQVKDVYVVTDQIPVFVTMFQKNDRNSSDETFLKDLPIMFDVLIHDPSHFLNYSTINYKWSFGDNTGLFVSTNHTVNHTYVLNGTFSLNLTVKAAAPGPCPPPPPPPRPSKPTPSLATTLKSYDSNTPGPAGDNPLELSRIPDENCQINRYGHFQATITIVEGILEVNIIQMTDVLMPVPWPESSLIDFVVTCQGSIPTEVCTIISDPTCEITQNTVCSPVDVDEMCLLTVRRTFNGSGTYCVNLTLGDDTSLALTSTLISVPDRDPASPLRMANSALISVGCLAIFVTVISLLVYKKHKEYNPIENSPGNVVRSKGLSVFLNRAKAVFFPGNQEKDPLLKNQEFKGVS
# UniProt Q9UBI6: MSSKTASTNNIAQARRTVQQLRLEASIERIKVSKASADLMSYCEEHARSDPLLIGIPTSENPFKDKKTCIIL
# UniProt P35754: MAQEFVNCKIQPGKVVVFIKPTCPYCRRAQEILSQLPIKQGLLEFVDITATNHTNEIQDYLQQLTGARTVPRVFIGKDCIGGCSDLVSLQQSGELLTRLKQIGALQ
# UniProt P63092, whole entry, looked up: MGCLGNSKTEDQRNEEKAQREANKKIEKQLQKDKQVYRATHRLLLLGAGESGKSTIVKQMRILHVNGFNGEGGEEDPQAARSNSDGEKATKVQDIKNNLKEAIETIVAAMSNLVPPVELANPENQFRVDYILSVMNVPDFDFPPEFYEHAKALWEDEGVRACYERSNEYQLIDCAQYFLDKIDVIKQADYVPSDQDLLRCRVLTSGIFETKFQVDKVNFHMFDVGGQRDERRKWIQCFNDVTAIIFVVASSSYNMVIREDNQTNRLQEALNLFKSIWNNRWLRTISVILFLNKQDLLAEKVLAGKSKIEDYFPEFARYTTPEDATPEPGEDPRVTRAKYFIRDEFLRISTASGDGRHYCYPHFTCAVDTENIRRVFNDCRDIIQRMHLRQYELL
# UniProt Q9NPB8: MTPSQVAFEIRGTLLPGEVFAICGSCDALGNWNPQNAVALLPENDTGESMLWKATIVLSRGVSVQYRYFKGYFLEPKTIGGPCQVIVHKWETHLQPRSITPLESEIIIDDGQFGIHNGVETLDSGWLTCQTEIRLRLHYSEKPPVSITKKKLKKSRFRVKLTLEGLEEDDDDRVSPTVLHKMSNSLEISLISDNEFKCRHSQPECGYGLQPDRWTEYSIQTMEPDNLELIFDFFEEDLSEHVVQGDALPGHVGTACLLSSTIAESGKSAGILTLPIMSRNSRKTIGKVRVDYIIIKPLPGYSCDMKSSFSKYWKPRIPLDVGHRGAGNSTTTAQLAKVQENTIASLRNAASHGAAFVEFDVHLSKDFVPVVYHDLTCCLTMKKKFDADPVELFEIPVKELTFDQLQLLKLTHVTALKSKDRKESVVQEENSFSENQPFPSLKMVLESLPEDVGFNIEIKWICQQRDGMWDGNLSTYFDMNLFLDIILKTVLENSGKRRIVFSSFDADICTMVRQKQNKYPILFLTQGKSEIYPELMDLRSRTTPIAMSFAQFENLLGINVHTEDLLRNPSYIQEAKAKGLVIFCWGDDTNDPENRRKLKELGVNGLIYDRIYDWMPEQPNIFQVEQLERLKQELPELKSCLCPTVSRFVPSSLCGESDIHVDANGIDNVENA
# UniProt P81274: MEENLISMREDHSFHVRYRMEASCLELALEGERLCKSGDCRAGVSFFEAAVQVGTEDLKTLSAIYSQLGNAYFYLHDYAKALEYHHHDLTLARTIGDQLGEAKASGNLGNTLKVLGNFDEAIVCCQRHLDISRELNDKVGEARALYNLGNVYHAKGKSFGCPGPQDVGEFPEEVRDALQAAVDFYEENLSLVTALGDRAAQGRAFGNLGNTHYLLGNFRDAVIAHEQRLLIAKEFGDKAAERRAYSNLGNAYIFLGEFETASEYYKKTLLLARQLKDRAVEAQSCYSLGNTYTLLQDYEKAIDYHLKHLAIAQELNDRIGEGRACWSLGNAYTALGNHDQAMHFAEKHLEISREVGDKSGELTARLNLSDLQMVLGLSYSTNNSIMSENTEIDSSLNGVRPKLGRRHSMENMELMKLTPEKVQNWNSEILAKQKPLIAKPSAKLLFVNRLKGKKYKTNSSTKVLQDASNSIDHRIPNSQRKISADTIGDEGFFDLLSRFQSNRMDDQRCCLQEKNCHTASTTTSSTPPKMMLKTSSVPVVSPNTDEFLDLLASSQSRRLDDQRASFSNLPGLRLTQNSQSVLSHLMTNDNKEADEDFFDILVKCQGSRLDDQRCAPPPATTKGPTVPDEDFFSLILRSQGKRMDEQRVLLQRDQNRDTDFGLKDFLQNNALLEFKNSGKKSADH
# UniProt Q96D09: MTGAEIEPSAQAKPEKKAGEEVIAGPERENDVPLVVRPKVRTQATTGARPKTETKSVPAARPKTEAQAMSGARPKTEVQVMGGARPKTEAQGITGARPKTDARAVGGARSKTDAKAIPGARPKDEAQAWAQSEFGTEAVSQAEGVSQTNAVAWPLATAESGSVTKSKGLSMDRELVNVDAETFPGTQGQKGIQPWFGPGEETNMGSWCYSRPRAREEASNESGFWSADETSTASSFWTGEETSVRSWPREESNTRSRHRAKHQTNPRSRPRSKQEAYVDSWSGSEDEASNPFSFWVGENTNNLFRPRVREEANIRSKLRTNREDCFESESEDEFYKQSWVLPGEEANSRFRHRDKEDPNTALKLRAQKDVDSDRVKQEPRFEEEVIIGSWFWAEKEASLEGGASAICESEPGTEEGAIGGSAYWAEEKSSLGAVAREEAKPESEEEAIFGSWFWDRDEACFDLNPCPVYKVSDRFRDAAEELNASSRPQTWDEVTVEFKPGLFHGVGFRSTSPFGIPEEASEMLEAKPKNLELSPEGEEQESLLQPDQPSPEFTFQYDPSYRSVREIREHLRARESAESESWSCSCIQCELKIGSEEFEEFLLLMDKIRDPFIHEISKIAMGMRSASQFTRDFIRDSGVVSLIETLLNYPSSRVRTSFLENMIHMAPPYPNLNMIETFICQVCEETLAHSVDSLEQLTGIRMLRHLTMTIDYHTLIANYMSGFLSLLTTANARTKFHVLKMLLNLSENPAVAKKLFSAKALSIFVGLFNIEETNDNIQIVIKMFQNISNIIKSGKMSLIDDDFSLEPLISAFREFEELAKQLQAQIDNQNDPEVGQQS
# The list shows a part of the results.
# Legend:
# Assay in all cases: log2 fold change, soluble protein after heating vs DMSO (PISA); higher = thermal stabilisation; K562 lysate, 10 uM; active = over 0.2 and 3.5 SD of the protein, either way, in both replicates (recomputed)
# [1] = compound: CN1CC[C@H](c2c(O)cc(O)c3c(=O)cc(-c4ccccc4Cl)oc23)[C@H](O)C1 [alvocidib]
# In short: (§1)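 Pellets of K562 cells were dounce-homogenised in PBS pH 7.4 with 1 mM MgCl2, and the crude extract was held at 1 mg/mL protein for a 30 min treatment with 10 μM compound. Aliquots were heated for 3 min over 48°C-58°C and pooled before NP-40 was added to 0.5% at 4°C. The supernatant from 21,000xg for 90 min was quantified by TMTpro 16plex LC-MS/MS with channel sums equalised. Values are reported from duplicates as log-two fold change in thermal stability relative to solvent controls.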
# [2] = compound: CN1CCc2c(c3ccccc3n2Cc2ccc(C(=O)NO)cc2)C1 [Tubastatin A]
# In short: as §1
# [3] = compound: CNC(=O)C1=CC=CC=C1NC2=NC(=NC=C2Cl)NC3=C(C=C(C=C3)N4CCOCC4)OC
# In short: as §1
# [4] = compound: CNC(=O)c1ccc(Nc2ncc(C(F)(F)F)c(NCc3nccnc3N(C)S(C)(=O)=O)n2)cc1 [defactinib]
# In short: as §1
# [5] = compound: CNc1nc(-c2ccc3c(N)n[nH]c3c2)cc(N2C[C@@H](C(=O)NC3CCCCC3)CC[C@H]2C)n1
# In short: as §1
# [6] = compound: COC(=O)N[C@@H](C)CNc1nccc(-c2cn(C(C)C)nc2-c2cc(Cl)cc(NS(C)(=O)=O)c2F)n1 [encorafenib]
# In short: as §1
# [7] = compound: COC(=O)[C@H](CCSC)NC(=O)C1=C(C=C(C=C1)NC[C@H](CS)N)C2=CC=CC=C2
# In short: as §1
# [8] = compound: COc1cc(Nc2ncc3c(n2)-c2ccc(Cl)cc2C(c2c(F)cccc2OC)=NC3)ccc1C(=O)O [alisertib]
# In short: as §1
# [9] = compound: COc1cc2nc(-c3cc(F)ccc3O)nc(N[C@@H]3CNC[C@H]3C(C)(C)O)c2cc1OC
# In short: as §1
# [10] = compound: COc1cc2ncnc(Nc3ccc(F)c(Cl)c3)c2cc1OCCCN1CCOCC1 [gefitinib]
# In short: as §1
Target,log2 fold change [1],log2 fold change [2],log2 fold change [3],log2 fold change [4],log2 fold change [5],log2 fold change [6],log2 fold change [7],log2 fold change [8],log2 fold change [9],log2 fold change [10]
GLG1 isoform 2 (UniProt Q92896),inactive: -0.013,inactive: 0.047,inactive: 0.003,inactive: 0.04,inactive: 0.01,inactive: 0.014,inactive: -0.073,inactive: -0.011,inactive: 0.009,inactive: 0.055
GPLD1 (UniProt P80108),,,,,inactive: -0.452,,,,,
GOLPH3L (UniProt Q9H4A5),inactive: 0.018,inactive: -0.083,inactive: -0.005,inactive: -0.077,inactive: 0.008,inactive: 0.063,active: -0.395,inactive: 0.026,inactive: -0.059,inactive: 0.018
GLE1 (UniProt Q53GS7),inactive: 0.217,inactive: 0.166,inactive: 0.048,inactive: 0.098,inactive: 0.067,inactive: 0.01,inactive: 0.098,inactive: -0.018,inactive: 0.116,inactive: -0.081
GGACT (UniProt Q9BVM4),inactive: 0.043,inactive: -0.029,inactive: -0.013,inactive: 0.044,inactive: -0.147,inactive: 0.131,inactive: -0.102,,inactive: 0.016,
GPR108 (UniProt Q9NPR9),inactive: -0.068,inactive: -0.034,inactive: 0.075,inactive: 0,inactive: 0.014,inactive: 0.11,inactive: -0.066,inactive: 0.001,inactive: 0.047,inactive: 0.002
GPS1 (UniProt A8K070),inactive: 0.007,inactive: -0.074,inactive: 0.092,inactive: 0.064,inactive: -0.019,inactive: -0.026,inactive: 0.03,inactive: -0.001,inactive: -0.009,inactive: -0.098
GMEB1 isoform 2 (UniProt Q9Y692),,inactive: -0.041,,,,,,inactive: -0.063,,inactive: -0.124
GPS2 (UniProt Q13227),inactive: -0.014,inactive: 0.015,inactive: -0.009,inactive: -0.087,inactive: -0.148,inactive: -0.11,inactive: 0.087,inactive: 0.04,inactive: -0.002,inactive: 0.003
GNPTAB (UniProt Q3T906),inactive: -0.103,inactive: -0.028,inactive: 0.019,,inactive: 0.151,,,inactive: -0.115,,inactive: 0.028
GOLGB1 isoform 4 (UniProt Q14789),,inactive: 0.04,,,inactive: -0.029,,,,,
GOLGA8R (UniProt I6L899),,inactive: 0.052,inactive: -0.055,,inactive: 0.497,,,inactive: -0.078,inactive: 0.152,inactive: 0.007
GOLGA4 (UniProt Q13439),,inactive: -0.011,inactive: -0.027,inactive: 0.09,inactive: 0.05,inactive: -0.052,inactive: 0.102,inactive: -0.088,,inactive: -0.083
GNL3 (UniProt Q9BVP2),inactive: 0.023,inactive: 0.008,inactive: 0.055,inactive: -0.002,inactive: 0.038,inactive: 0.014,active: 0.252,inactive: -0.006,inactive: 0.033,inactive: -0.029
GPNMB (UniProt Q14956),inactive: -0.247,,,,inactive: 0.898,,,inactive: -0.19,inactive: 0.161,inactive: 0.015
GLS isoform 3 (UniProt O94925),inactive: 0.029,inactive: -0.085,inactive: -0.017,inactive: 0.009,inactive: -0.029,inactive: -0.009,inactive: 0.079,inactive: -0.001,inactive: -0.082,inactive: 0.011
GLCE (UniProt O94923),inactive: -0.007,inactive: 0.117,inactive: -0.002,,inactive: 0.031,inactive: 0.016,inactive: -0.101,inactive: -0.157,inactive: -0.022,inactive: 0.153

# Looked up above:
# For log2 fold change [3], GGACT (UniProt Q9BVM4) reads inactive: -0.013
# For log2 fold change [9], GPNMB (UniProt Q14956) reads inactive: 0.161

# Random excerpt: two entries already listed, in no set order.
Target,log2 fold change [1],log2 fold change [2],log2 fold change [3],log2 fold change [4],log2 fold change [5],log2 fold change [6],log2 fold change [7],log2 fold change [8],log2 fold change [9],log2 fold change [10]
GPNMB (UniProt Q14956),inactive: -0.247,,,,inactive: 0.898,,,inactive: -0.19,inactive: 0.161,inactive: 0.015
GPLD1 (UniProt P80108),,,,,inactive: -0.452,,,,,

# Continued.

Target,log2 fold change [1],log2 fold change [2],log2 fold change [3],log2 fold change [4],log2 fold change [5],log2 fold change [6],log2 fold change [7],log2 fold change [8],log2 fold change [9],log2 fold change [10]
GINM1 (UniProt Q9NU53),inactive: -0.362,,inactive: -0.135,,,,,inactive: 0.065,,inactive: 0.1
GNG12 (UniProt Q9UBI6),inactive: 0.043,,,inactive: 0.068,,,,inactive: 0.096,,inactive: -0.08
GLTP (UniProt Q9NZD2),inactive: 0.086,inactive: 0.013,inactive: -0.013,inactive: 0.048,inactive: -0.035,inactive: -0.021,inactive: -0.068,,inactive: 0.026,
GLRX (UniProt P35754),,,,inactive: 0.065,,inactive: 0.073,inactive: -0.009,,,
GPAM (UniProt Q9HCL2),,inactive: -0.011,,,,,,,,
GPBP1L1 (UniProt Q9HC44),inactive: -0.005,inactive: -0.055,inactive: 0.008,inactive: 0.022,inactive: 0.006,inactive: 0.067,inactive: -0.057,,inactive: -0.034,
GIPC3 (UniProt Q8TF64),inactive: -0.108,inactive: -0.071,inactive: 0.055,,inactive: -0.157,inactive: 0.028,inactive: 0.05,inactive: -0.194,inactive: 0.008,inactive: 0.073
GNAS isoform 3 (UniProt P63092),inactive: -0.015,,inactive: 0.008,,,,,,inactive: -0.027,
GORAB (UniProt Q5T7V8),inactive: 0.001,inactive: 0.043,inactive: 0.045,inactive: 0.143,inactive: 0.109,inactive: 0.06,inactive: -0.026,inactive: -0.006,inactive: 0.016,inactive: -0.021
GPCPD1 (UniProt Q9NPB8),inactive: -0.016,inactive: -0.046,inactive: 0.008,inactive: 0.002,inactive: -0.014,inactive: -0.057,inactive: 0.086,inactive: 0.003,inactive: -0.005,inactive: -0.003
GPSM2 (UniProt P81274),inactive: -0.139,,inactive: 0.041,inactive: -0.093,inactive: 0.06,inactive: 0.024,inactive: -0.496,inactive: -0.035,inactive: 0.002,inactive: -0.073
GOSR1 (UniProt E9PCW1),inactive: -0.073,inactive: 0.076,,,inactive: -0.071,,,inactive: 0.028,,inactive: -0.018
GPSM1 (UniProt Q86YR5),,,inactive: -0.001,inactive: -0.007,,inactive: 0.015,inactive: 0.03,,,
GNA12 (UniProt Q03113),,inactive: 0.075,,inactive: -0.31,inactive: 0.128,inactive: -0.122,inactive: 0.001,,inactive: 0.058,
GOLGA1 (UniProt Q92805),inactive: -0.027,inactive: 0.051,inactive: 0.035,inactive: -0.017,inactive: 0.011,inactive: 0.028,inactive: -0.093,inactive: -0.017,inactive: -0.18,inactive: -0.024
GINS4 (UniProt Q9BRT9),inactive: -0.004,inactive: -0.009,inactive: 0.006,inactive: 0.026,inactive: -0.026,inactive: 0.021,inactive: 0.029,inactive: 0.03,inactive: -0.014,inactive: 0.02
GPRASP2 (UniProt Q96D09),,inactive: -0.109,,inactive: 0.071,,inactive: 0.13,inactive: -0.023,inactive: -0.09,,inactive: 0.121
